± gives the standard deviation of the averaged measurements. The list shows a part of the results. Repeats in this data set agree poorly, so a single value says little.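 Fusion between ACE2-bearing and full-length-spike-bearing U2OS cells was measured by imaging as the percentage of nuclei with both cell types' fluorescent markers. An inhibitory hit is a non-toxic compound whose fusion z-score is below -3, more than three standard deviations beneath the plate's DMSO wells.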
What follows are compounds tested on U2OS ACE2 x SARS-CoV-2 spike co-culture (assay: cell-cell fusion (fraction fused) z-score vs plate DMSO control; higher = more fusion). Settings: 30 µM; 5 h; toxicity class: non-toxic, passed QC.

| SMILES | cell-cell fusion (z-score) |
| --- | --- |
| CCS(=O)(=O)CCn1c([N+](=O)[O-])cnc1C | inactive: 1.08 |
| Cl.NCC(=O)CCC(=O)O [5-Aminolevulinic acid hydrochloride] | inactive: 1.75 |
| Br.CC(Cc1ccc(O)cc1)NCC(O)c1cc(O)cc(O)c1 (stereo not drawn) [Fenoterol hydrobromide] | inactive: -0.959 |
| Br.CC(Cc1ccc(O)cc1)NCC(O)c1cc(O)cc(O)c1 (stereo not drawn) | inactive: 0.432 |
| CN(C)C(=O)Oc1cccc([N+](C)(C)C)c1.COS(=O)(=O)[O-] [Hodostin] | inactive: 0.874 |
| Cc1ccc(/C(=C\CN2CCCC2)c2ccccn2)cc1.Cl [Triprolidine hydrochloride] | inactive: 1.85 |
| Cc1ccc(/C(=C\CN2CCCC2)c2ccccn2)cc1.Cl | inactive: 2.49 |
| CC(=O)Nc1ccc(OC(=O)c2ccccc2O)cc1 | inactive: 1.87 |
| O=C1Nc2ccccc2/C1=C1/Nc2ccccc2C1=O [Indirubin] | inactive: -0.089 |
| Cc1nc2n(c(=O)c1CCN1CCC(c3noc4cc(F)ccc34)CC1)CCCC2O (stereo not drawn) [Paliperidone] | inactive: 4.42 |
| CN(c1ncccc1CNc1nc(Nc2ccc3c(c2)CC(=O)N3)ncc1C(F)(F)F)S(C)(=O)=O | -1.03 ± 4.5 |
| COc1ccc(-c2coc3cc(O)ccc3c2=O)c(OC)c1OC | inactive: 2.31 |
| Nc1nc(=O)n([C@@H]2CS[C@H](CO)O2)cc1F [Emtricitabine] | inactive: 1.84 |
| C[N+]1(C)C2CC(OC(=O)[C@@H](CO)c3ccccc3)CC1C1OC12.[Br-] (stereo partly drawn) | inactive: 0.0202 |
| C[C@H]1C(=O)O[C@@H]2CCN3CC=C(COC(=O)[C@](C)(O)[C@]1(C)O)[C@H]23 | inactive: 1.97 |
| CC1=CC(=O)[N-]S(=O)(=O)O1.[K+] | inactive: 2.67 |
| CC1(O)CCOC(=O)C1 (stereo not drawn) | inactive: 0.999 |
| C[C@H](Cc1ccc(O)c(O)c1)[C@@H](C)Cc1ccc(O)c(O)c1 | active: -4.23 |
| C=CC[N+]1([C@H]2CC3C4CCC5C[C@H](O)[C@@H](N6CCOCC6)C[C@]5(C)C4CC[C@]3(C)[C@H]2OC(C)=O)CCCC1.[Br-] (stereo partly drawn) | inactive: 0.154 |
| CC1=C2C(O)C(=O)OC3CC4C(C)(C)C(=O)C=C[C@]4(C)C(CC1)[C@]23C (stereo partly drawn) | inactive: 2.12 |
| O=C1CCCC(=O)C1C(=O)c1ccc(C(F)(F)F)cc1[N+](=O)[O-] [Nitisinone] | inactive: 4.16 |
| CN(C)[C@@H]1C(O)=C(C(N)=O)C(=O)[C@@]2(O)C(O)=C3C(=O)c4c(O)ccc(Cl)c4[C@@H](O)[C@H]3C[C@@H]12.Cl [Demeclocycline hydrochloride] | inactive: 1.35 |
| c1ccc(Cc2nc3ccccc3[nH]2)cc1 [Bendazol] | inactive: 1.37 |
| O=C(O)c1cc2cc(Cl)ccc2[nH]1 | inactive: 2.75 |
| Cc1nc(/N=N/c2ccc(C(=O)[O-])cc2)c(COP(=O)([O-])[O-])c(C=O)c1O.[Na+].[Na+].[Na+] | inactive: 2.94 |

| SMILES | cell-cell fusion (z-score) |
| --- | --- |
| O=C(/C=C/C=C/c1ccc2c(c1)OCO2)N1CCCCC1 | inactive: 2.62 |
| Cc1cc(C)nc(NS(=O)(=O)c2ccc(N)cc2)n1 | inactive: 1.89 |
| Cc1cccc(-c2[nH]c(C(C)(C)C)nc2-c2ccc3nccnc3c2)n1 | inactive: 2.24 |
| Cn1c(=O)c2[nH]c(-c3ccc(S(=O)(=O)O)cc3)nc2n(C)c1=O [8-(p-Sulfophenyl)theophylline] | inactive: 1.13 |
| CC(C)n1c(/C=C/[C@@H](O)C[C@@H](O)CC(=O)[O-])c(-c2ccc(F)cc2)c2ccccc21.[Na+] [Fluvastatin sodium salt] | inactive: -0.0474 |
| COc1ccccc1N1CCN(CC(O)COc2cccc3ccccc23)CC1 (stereo not drawn) | inactive: -0.3 |
| CC1CC(OC(=O)c2ccccc2O)CC(C)(C)C1 (stereo not drawn) | inactive: 3.69 |
| C=C1CCC2C(CC2(C)C)C(=O)CCC1O (stereo not drawn) | inactive: 1.28 |
| COc1ccc2c(c1O)-c1cccc3c1[C@@H](C2)N(C)CC3.Cl [R(-)-Apocodeine hydrochloride] | inactive: 2.6 |
| C[C@H](CC(=O)C1OC1(C)C)[C@H]1C(=O)C[C@@]2(C)C3=CCC4C(C)(C)[C@@H](O[C@@H]5OC[C@@H](O)[C@H](O)[C@H]5O)CC[C@@]45C[C@@]35[C@@H](O)C[C@]12C (stereo partly drawn) | inactive: 0.852 |
| O=C([O-])C1=C(CSc2nnnn2CS(=O)(=O)[O-])CS[C@@H]2C(NC(=O)[C@H](O)c3ccccc3)C(=O)N12.[Na+].[Na+] (stereo partly drawn) | inactive: 2.92 |
| CCC(=O)N1CCN(c2ccc(-n3c(=O)ccc4cnc5ccc(-c6cnc7ccccc7c6)cc5c43)cc2C(F)(F)F)CC1 [Torin 1] | inactive: 1.59 |
| N[C@@H]1CONC1=O [D-Cycloserine] | inactive: 3.5 |
| CNC[C@H](O)c1ccc(O)c(O)c1.Cl [Epinephrine HCl] | inactive: -0.402 |
| CC/C=C\C/C=C\C/C=C\C/C=C\C/C=C\C/C=C\CCC(=O)O | inactive: 3.85 |
| CCOC(=O)N1CC\C(CC1)=C1\c2ccc(Cl)cc2CCc2cccnc12 [Loratadine] | inactive: 1.81 |
| C=C1C2CC[C@@]3(C)[C@H](c4ccoc4)OC(=O)C[C@]13O[C@H]1CCC(C)(C)[C@H](C(OC(C)=O)C(=O)OC)[C@@]21C (stereo partly drawn) | inactive: 2.67 |
| C/C1=C/CC(C)(C)/C=C/C/C(C)=C/CC1 [HUMULENE (alpha)] | inactive: 1.97 |
| O=c1cc(-c2cc(O)c(O)c(O)c2)oc2cc(O)cc(O)c12 | inactive: 1.73 |
| Cn1c(=O)n(-c2ccc(C(C)(C)C#N)cc2)c2c3cc(-c4cnc5ccccc5c4)ccc3ncc21 | inactive: 0.753 |
| CNS(=O)(=O)CCc1ccc2[nH]cc(C3CCN(C)CC3)c2c1.Cl [Naratriptan] | inactive: 2.05 |
| CC(C)=CCC/C(C)=C/CC/C(C)=C/CSc1ccccc1C(=O)O [Farnesyl Thiosalicylic Acid] | inactive: 2.1 |
| COC1=CC(C)[C@@H]2C[C@H]3OC(=O)C[C@H]4C(C)=C(OC)C(=O)C([C@@]34C)[C@@]2(C)C1=O (stereo partly drawn) | inactive: 1.83 |
| CNC(=O)Oc1ccccc1OC(C)C | inactive: 2.01 |
| CN(C)c1ccc2nc3ccc(N(C)C)cc3[s+]c2c1.O.[Cl-] | inactive: 4.26 |

| SMILES | cell-cell fusion (z-score) |
| --- | --- |
| CS(=O)(=O)Nc1ccc([N+](=O)[O-])cc1Oc1ccccc1 [Nimesulide] | inactive: 1.86 |
| CCC1=C(C)CN(C(=O)NCCc2ccc(S(=O)(=O)NC(=O)N[C@H]3CC[C@H](C)CC3)cc2)C1=O | inactive: 1.33 |
| OC[C@@H](O)[C@H]1O[C@@H]2O[C@H](C(Cl)(Cl)Cl)O[C@@H]2[C@H]1O | inactive: -0.109 |
| NS(=O)(=O)C#Cc1ccccc1 [Pifithrin-mu] | inactive: 0.553 |
| CC(NC(C)(C)C)C(=O)c1cccc(Cl)c1.Cl (stereo not drawn) [Bupropion hydrochloride] | inactive: 1.71 |
| CN(C/C=C/c1ccccc1)Cc1cccc2ccccc12.Cl | inactive: 4.96 |
| COc1cc(O)c2c(c1)C(=O)c1cc(C)cc(O)c1C2=O | inactive: 1.72 |
| c1cnc2c(c1)ccc1cccnc12 [1,10-Phenanthroline monohydrate] | inactive: -0.103 |
| CN(C)C/C=C/C(=O)Nc1cc2c(Nc3ccc(F)c(Cl)c3)ncnc2cc1O[C@H]1CCOC1 [Afatinib (BIBW2992)] | inactive: 0.887 |
| O=c1ccc2ccc(O)c(O)c2o1 [Daphnetin] | inactive: 1.5 |
| C#CC(N)CCC(=O)O (stereo not drawn) [gamma-Acetylinic GABA] | inactive: 0.47 |
| CNCCC(Oc1ccc(C(F)(F)F)cc1)c1ccccc1 (stereo not drawn) [Fluoxetine] | inactive: 0.0772 |
| COc1ccc(Cl)cc1C(=O)NCCc1ccc(S(=O)(=O)NC(=O)NC2CCCCC2)cc1 [Glyburide] | inactive: 3.84 |
| CO[C@@]1(NC(=O)Cc2cccs2)C(=O)N2C(C(=O)[O-])=C(COC(N)=O)CS[C@@H]21.[Na+] | inactive: 2.2 |
| Cc1c(-c2ccc(-c3ccccc3F)cc2)nc2ccc(F)cc2c1C(=O)[O-].[Na+] [Brequinar sodium salt hydrate] | inactive: -0.385 |
| Cc1cc2c(F)c(Oc3ncnn4cc(OC[C@@H](C)O)c(C)c34)ccc2[nH]1 | inactive: -2.74 |
| C[C@H]1COc2c(N3CCN(C)CC3)c(F)cc3c(=O)c(C(=O)O)cn1c23 | inactive: 2.8 |
| CC(=O)Oc1cc(OC(C)=O)c2c(c1)O[C@H](c1ccc(OC(C)=O)c(OC(C)=O)c1)[C@H](OC(C)=O)C2 | inactive: -0.149 |
| Nc1nnc(-c2cccc(Cl)c2Cl)c(N)n1 [Lamotrigine] | inactive: 2.18 |
| COc1cccc(OC)c1C(=O)N[C@@H]1C(=O)N2[C@@H]1SC(C)(C)[C@@H]2C(=O)[O-].[Na+] | inactive: 0.269 |
| Cl.Clc1ccc(Cn2c(CN3CCCC3)nc3ccccc32)cc1 | inactive: 2.77 |
| O=C(NC[C@H]1CN(c2ccc(N3CCOCC3=O)cc2)C(=O)O1)c1ccc(Cl)s1 | inactive: 1.59 |
| Cl.O=C(O)C1=CCCNC1 [Guvacine hydrochloride] | inactive: 3.65 |

Some values from above.
In cell-cell fusion (z-score), CC1CC(OC(=O)c2ccccc2O)CC(C)(C)C1 (stereo not drawn) is entered as inactive: 3.69
In cell-cell fusion (z-score), CN(C)c1ccc2nc3ccc(N(C)C)cc3[s+]c2c1.O.[Cl-] is entered as inactive: 4.26
In cell-cell fusion (z-score), O=C([O-])C1=C(CSc2nnnn2CS(=O)(=O)[O-])CS[C@@H]2C(NC(=O)[C@H](O)c3ccccc3)C(=O)N12.[Na+].[Na+] (stereo partly drawn) is entered as inactive: 2.92

— the supplement of paper PMC8104966
